According to PubChem BioAssay AID624297 (National Center for Advancing Translational Sciences (NCATS), 2012):
The whole screen tested about 340,000 compounds, of which about 6,200 (1.8%) were called active. Inconclusive means that the source gave no clear call. Such entries were picked first, then a sample of the others. Calls come from the whole dose curve; as a rule, active = well fitted activation curve with a large enough effect; inconclusive = small, poorly fitted or top-dose-only effect; inactive = no such curve, though single readings can be large or run the other way. Where the call is inconclusive, the potency comes from a doubtful curve fit.
Potency is the fitted concentration of half-maximal effect.

Test: A quantitative high throughput screen for small molecules that induce DNA re-replication in SW480 colon adenocarcinoma cells. For re-replication activation: % of control where 0% means no effect. Note: nearly all actives have a fitted effect of over 55% in size.
Conditions: Hoechst DNA content imaging, 48 h; re-replication activation: at 46.1 µM (top of the series)
Outline: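 DNA re-replication was detected as more nuclei of elevated Hoechst intensity after 48 hr exposure to compound (23 nL pinned per well of 250 cells).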
In the case of `CN(Cc1ccccc1)c1ncnc2sccc12`, the Potency is reported as inconclusive: 9.2 µM [activator, partial curve, poor fit].
With `COc1cc(C(=O)O)ccc1OCc1c(C)noc1C` the “re-replication activation” value was inactive: -14.7%.
With `CCCCOc1ccccc1P(=O)(O)CP(=O)(c1ccccc1)c1ccccc1` the Potency was inconclusive: 16.4 µM [activator, single point].
With `O=C(CSc1nc(C(F)(F)F)cc(=O)[nH]1)N1CCC(Cc2ccccc2)CC1` the Potency was inconclusive: 0.164 µM [activator, full curve, poor fit].
In the case of `O=C(NCc1cccnc1)c1cc(S(=O)(=O)N2CCOCC2)c(Cl)cc1Cl`, the Potency is reported as inconclusive: 7.31 µM [activator, partial curve, poor fit].
With `O=C(Nc1ccc(Cl)cc1)Nc1nnc(CSc2ccc(Cl)cc2)s1` the Potency was inconclusive: 29.1 µM [activator, single point].
With `S=C(NCCSCc1c(Cl)cccc1Cl)Nc1ccccc1` the “re-replication activation” value was inactive: 1.98%.
In the case of `CCn1nc(C(=O)N2CCN(Cc3nc4ccccc4s3)CC2)c2ccccc2c1=O`, the “re-replication activation” value is reported as inactive: -17.6%.
In the case of `COc1ccc(-n2nc(C(=O)NCC(=O)N3CCCCCC3)c3ccccc3c2=O)cc1OC`, the Potency is reported as inconclusive: 2.82 µM [activator, single point].
For `CCOC(=O)c1ccc(NC(=S)N(CCCN2CCCC(C)C2)Cc2cccs2)cc1` (stereo not given), the Potency was inconclusive: 29.1 µM [activator, single point].
With `CC(=O)N1C(=O)C(=C2C=C(C)OC(C)=C2)c2ccccc21` the “re-replication activation” value was inactive: -1.22%.
For `Cc1ccc(-n2c(SCC(=O)OC(C)C)nnc2-c2ccccn2)cc1`, the “re-replication activation” value was inactive: 0.977%.
In the case of `Cc1ccc(CN2C(=O)c3ccccc3NC2c2cc(Br)ccc2O)cc1` (stereo not given), the Potency is reported as inconclusive: 25.9 µM [activator, single point].
With `COc1ccc(-n2c(=S)[nH]c3cc(C(=O)NCc4ccc(F)cc4)ccc3c2=O)c(OC)c1` the “re-replication activation” value was inactive: 2.26%.
For `COc1cc(OC)cc(C(=O)N[C@H](C(=O)Nc2c(C)n(C)n(-c3ccccc3)c2=O)C(C)C)c1`, the Potency was inconclusive: 20.6 µM [activator, single point].
In the case of `COc1ccc(Cl)cc1S(=O)(=O)N1CCC(C(=O)NC2CCCC2)CC1`, the Potency is reported as inconclusive: 29.1 µM [activator, single point].
In the case of `COc1ccc(-c2csc3nc(-c4ccc(C)cc4)oc(=O)c23)cc1OC`, the Potency is reported as inconclusive: 16.4 µM [activator, partial curve, poor fit].
For `O=[N+]([O-])c1ccc(-[n+]2ccc3ccccc3c2)c([N+](=O)[O-])c1`, the Potency was inconclusive: 1.3 µM [activator, partial curve, poor fit].
With `COc1ccccc1Nc1nc(N)nc(-c2cc3ccccc3o2)n1` the Potency was inconclusive: 29.1 µM [activator, single point].
With `Cc1ccc(C(=O)N/N=C/c2ccc(-c3cccc(Cl)c3)o2)cn1` the Potency was inconclusive: 29.1 µM [activator, single point].
In the case of `O=C(/C=C/c1ccco1)NC(=S)Nc1ccc(Cl)cn1`, the “re-replication activation” value is reported as inactive: -2.79%.
For `N=c1c2c(-c3ccccc3)c(-c3ccccc3)n(Cc3ccccc3)c2ncn1CCO`, the Potency was inconclusive: 29.1 µM [activator, single point].
In the case of `CCOc1ccccc1NC(=O)C1CCCCN1S(=O)(=O)c1ccccc1` (stereo not given), the “re-replication activation” value is reported as inactive: 11.6%.
In the case of `CCOC(=O)c1c(-c2cccs2)csc1NC(=O)COC(=O)c1c(C)noc1C`, the “re-replication activation” value is reported as inactive: 6.1%.
In the case of `O=C(NCc1cccs1)c1cc(S(=O)(=O)N2CCOCC2)ccc1N1CCCC1`, the “re-replication activation” value is reported as inactive: -6.26%.
For `Cc1ccc(C)c(N2CCN(C(=O)c3ccc(Cn4c(=S)[nH]c5ccc(N6CCOCC6)cc5c4=O)cc3)CC2)c1`, the “re-replication activation” value was inactive: 22.4%.
With `O=C1CCCN1C(=O)COc1ccccc1[N+](=O)[O-]` the Potency was inconclusive: 32.6 µM [activator, partial curve, poor fit].
For `Cc1ccc(C)c(N2CCN(S(=O)(=O)c3ccc4c(c3)NC(=O)CO4)CC2)c1`, the Potency was inconclusive: 29.1 µM [activator, single point].
In the case of `COc1cccc(C(=O)COc2ccc3c(C)cc(=O)oc3c2)c1`, the Potency is reported as inconclusive: 20.6 µM [activator, single point].
In the case of `Cc1ccc(NC(=O)c2cc(-c3ccccc3)nn2-c2ccccc2)c(Br)c1`, the “re-replication activation” value is reported as inactive: -0.387%.
In the case of `O=C(Nc1cccc(-c2cccc(Cl)c2)c1)C1CCN(C2CCC2)CC1`, the Potency is reported as inconclusive: 18.4 µM [activator, single point].
For `c1ccc(-n2c(-c3cccs3)nc3nc4ccccc4nc32)cc1`, the Potency was inconclusive: 16.4 µM [activator, partial curve, poor fit].
In the case of `CCC1CCCCN1C(=O)COc1ccc(N(C)S(=O)(=O)c2ccc(C)cc2)cc1` (stereo not given), the Potency is reported as inconclusive: 32.6 µM [activator, partial curve, poor fit].
In the case of `CCCN1CCc2c(sc(NC(=O)Cc3ccc(F)cc3)c2C(N)=O)C1`, the Potency is reported as inconclusive: 29.1 µM [activator, single point].
For `O=C(NCc1cccs1)C1CCCN1C(=O)Nc1cccc(F)c1` (stereo not given), the Potency was inconclusive: 0.013 µM [activator, full curve, poor fit].
For `O=C1C2CCCCN2C(=O)N1CCN1CCN(c2ccc([N+](=O)[O-])cc2)CC1` (stereo not given), the re-replication activation was inactive: -6.49% [at 9.22 µM].
With `Cc1cc(OCC(=O)Nc2ccc(CN3CCOCC3)cc2)c2c(C)cc(=O)oc2c1` the Potency was inconclusive: 23.1 µM [activator, single point].
With `COc1ccc2c(c1)[C@H]1[C@H](CO2)[C@H](c2ccccc2)[C@]2(C)C(=O)Nc3ccc(Br)cc3C(=O)N12` the Potency was inconclusive: 6.51 µM [activator, partial curve].
For `Cc1ccc(C(=O)NC(=O)OCCn2c(C)cnc2[N+](=O)[O-])cc1`, the “re-replication activation” value was inactive: -5.76%.
With `O=C(NCc1ccco1)c1ccc(COc2cccc3ccccc23)cc1` the Potency was inconclusive: 16.4 µM [activator, single point].
With `COC(=O)c1cc(Cl)c(NC(=O)/C=C/c2ccc(Cl)cc2)cc1OC` the Potency was inconclusive: 29.1 µM [activator, partial curve, poor fit].
In the case of `COc1cccc(N2CCN(C(=O)C3CCC(=O)N(C4CCCCCC4)C3)CC2)c1` (stereo not given), the Potency is reported as inconclusive: 2.31 µM [activator, partial curve, poor fit].
With `c1ccc(Nc2nc(-c3ccccc3)nc3ccccc23)cc1` the Potency was inconclusive: 0.461 µM [activator, partial curve, poor fit].
With `COc1cccc(NC(=O)Nc2cccc(C)n2)c1` the “re-replication activation” value was inactive: 0.722%.
In the case of `COc1cccc(CNC(=O)C2CCN(C(=O)N3CC(C)Oc4ccccc43)CC2)c1` (stereo not given), the “re-replication activation” value is reported as inactive: -2.59%.
With `O=C1N(c2ccccc2)C[C@@H]2C[C@@H](c3cc4ccccc4o3)N3CCC[C@@]123` the Potency was inconclusive: 0.326 µM [activator, full curve].
With `CCc1cccc(CC)c1NC(=O)/C(C#N)=C/c1ccccc1C(F)(F)F` the “re-replication activation” value was inactive: -80.3%.
For `CCNC(=S)NNC(=O)c1csc2c1CCC(C)C2` (stereo not given), the Potency was inconclusive: 29.1 µM [activator, partial curve, poor fit].
In the case of `O=C(O)c1cc(S(=O)(=O)N2CC3CC3C2C(=O)O)c(Cl)cc1Cl` (stereo not given), the Potency is reported as inconclusive: 0.92 µM [activator, full curve, poor fit].
For `CCN(c1ccccc1)S(=O)(=O)c1cc(C(=O)Nc2ccccc2Cl)ccc1F`, the Potency was inconclusive: 10.3 µM [activator, partial curve].
With `CCc1ccc(N(C(=O)c2snc(C(N)=O)c2N)C(C(=O)NC2CCCC2)c2ccco2)cc1` (stereo not given) the Potency was inconclusive: 18.4 µM [activator, single point].
In the case of `CCN(Cc1ccccc1)C(=S)NC(=O)c1ccccc1Br`, the Potency is reported as active: 11.6 µM.
In the case of `CCOC(=O)c1c(C)n(-c2ccc(C)cc2)c2ccc(O)c(CN(C)C)c12`, the Potency is reported as inconclusive: 23.1 µM [activator, single point].
For `O=C(C1CCCCC1)N1CCN(C(=O)C2CCCCC2)CC1`, the Potency was inconclusive: 0.116 µM [activator, full curve, poor fit].
For `CSc1cccc(NC(=O)COC(=O)C2(c3ccccc3)CC2)c1`, the Potency was inconclusive: 32.6 µM [activator, partial curve, poor fit].
In the case of `S=C1NCN(CCc2ccccc2)CN1`, the “re-replication activation” value is reported as inactive: -1.68%.
In the case of `Cc1ccc(OCc2cc(C(=O)N3CCCC(O)C3)no2)cn1` (stereo not given), the Potency is reported as inconclusive: 29.1 µM [activator, single point].
With `COc1ccc2c(c1)[C@H]1[C@H](CO2)[C@H](c2ccccc2)[C@]2(C)C(=O)Nc3ccc(Cl)cc3C(=O)N12` the Potency was inconclusive: 16.4 µM [activator, partial curve, poor fit].
For `Cc1ccc(NC(=O)c2cccc(S(=O)(=O)N3CCN(c4ccc(F)cc4)CC3)c2)nc1`, the Potency was inconclusive: 23.1 µM [activator, partial curve, poor fit].
In the case of `Cn1c(SCC(=O)NNC(=O)Cc2ccccc2)nc2ccccc2c1=O`, the Potency is reported as inconclusive: 18.4 µM [activator, single point].
For `CC(C)n1nc(C(=O)Nc2nnc(SCc3c(Cl)cccc3Cl)s2)c2ccccc2c1=O`, the Potency was inconclusive: 29.1 µM [activator, single point].
In the case of `Cn1c(=O)c2c(nc(Br)n2CC(=O)c2cccs2)n(C)c1=O`, the Potency is reported as inconclusive: 29.1 µM [activator, single point].
In the case of `CN1CCN(c2ccc([N+](=O)[O-])cc2C(=O)c2ccccc2)CC1`, the Potency is reported as inconclusive: 20.6 µM [activator, partial curve, poor fit].
For `CCc1noc(C)c1C(=O)Nc1ccc(S(=O)(=O)N2CCCCC2)cc1`, the Potency was inconclusive: 0.58 µM [activator, full curve].
With `Cc1ccc(C=NNC(=O)c2cc(-c3cccnc3)nc3ccccc23)o1` the Potency was active: 7.31 µM.
